Tested on: HepG2 cell line

NC(=O)c1nccnc1NCc1cccc(C(F)(F)F)c1 [Compound 4, 3-[(3-Trifluoromethylbenzyl)amino]pyrazine-2-carboxamide]
SI (IC50/MIC): 1.8

NC(=O)c1nccnc1NCc1ccc(C(F)(F)F)cc1 [Compound 12, 3-[(4-Trifluoromethylbenzyl)amino]pyrazine-2-carboxamide]
SI (IC50/MIC): 1.4

Source: PMC6155776, “Synthesis of Novel Pyrazinamide Derivatives Based on 3-Chloropyrazine-2-carboxamide and Their Antimicrobial Evaluation” (Molecules : A Journal of Synthetic Chemistry and Natural …, 2017)
